# Test results: article PMC4459967
# Chains of the proteins cited; added tags and fusions are not shown. Lines headed by an entry give the natural chain unless they say otherwise; changes in a name come on top.
# UniProt Q9FHA3: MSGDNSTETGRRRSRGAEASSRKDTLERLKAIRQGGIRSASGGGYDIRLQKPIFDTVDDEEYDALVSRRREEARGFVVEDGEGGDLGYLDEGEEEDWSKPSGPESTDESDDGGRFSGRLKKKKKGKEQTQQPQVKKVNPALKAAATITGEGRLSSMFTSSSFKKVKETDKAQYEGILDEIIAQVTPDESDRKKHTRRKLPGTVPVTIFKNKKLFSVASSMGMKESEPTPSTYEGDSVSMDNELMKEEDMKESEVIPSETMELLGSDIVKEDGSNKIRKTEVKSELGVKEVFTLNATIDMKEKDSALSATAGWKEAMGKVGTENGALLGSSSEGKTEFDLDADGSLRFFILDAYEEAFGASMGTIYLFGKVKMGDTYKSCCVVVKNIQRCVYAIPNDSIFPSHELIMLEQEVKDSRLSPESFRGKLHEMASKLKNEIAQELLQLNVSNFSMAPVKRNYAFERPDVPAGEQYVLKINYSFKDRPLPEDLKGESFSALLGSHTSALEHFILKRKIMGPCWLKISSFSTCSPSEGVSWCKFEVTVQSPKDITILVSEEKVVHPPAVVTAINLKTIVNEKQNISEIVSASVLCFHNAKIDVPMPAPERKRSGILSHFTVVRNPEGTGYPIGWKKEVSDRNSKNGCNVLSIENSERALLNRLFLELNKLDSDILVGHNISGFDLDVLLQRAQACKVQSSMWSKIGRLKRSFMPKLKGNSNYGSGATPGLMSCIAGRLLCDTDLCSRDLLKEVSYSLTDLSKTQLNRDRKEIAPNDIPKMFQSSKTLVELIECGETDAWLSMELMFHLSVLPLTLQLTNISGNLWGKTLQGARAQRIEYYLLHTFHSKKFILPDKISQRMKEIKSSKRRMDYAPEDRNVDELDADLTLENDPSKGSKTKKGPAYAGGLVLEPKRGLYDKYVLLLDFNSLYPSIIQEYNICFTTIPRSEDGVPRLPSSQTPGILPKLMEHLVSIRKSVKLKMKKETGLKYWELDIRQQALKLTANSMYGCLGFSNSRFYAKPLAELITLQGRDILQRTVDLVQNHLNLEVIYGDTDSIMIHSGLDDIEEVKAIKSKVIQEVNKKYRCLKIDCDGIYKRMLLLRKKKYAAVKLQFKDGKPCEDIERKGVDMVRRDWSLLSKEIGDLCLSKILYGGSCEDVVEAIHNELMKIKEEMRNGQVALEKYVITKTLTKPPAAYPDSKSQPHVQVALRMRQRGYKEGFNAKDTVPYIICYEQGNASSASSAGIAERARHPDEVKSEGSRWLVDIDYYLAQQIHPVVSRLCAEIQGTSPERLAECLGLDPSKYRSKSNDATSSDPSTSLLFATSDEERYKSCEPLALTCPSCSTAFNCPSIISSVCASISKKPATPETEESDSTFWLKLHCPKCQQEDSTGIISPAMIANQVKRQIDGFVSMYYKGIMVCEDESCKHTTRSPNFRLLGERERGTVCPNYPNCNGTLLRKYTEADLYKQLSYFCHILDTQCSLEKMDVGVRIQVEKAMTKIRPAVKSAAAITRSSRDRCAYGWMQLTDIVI
# UniProt P41917: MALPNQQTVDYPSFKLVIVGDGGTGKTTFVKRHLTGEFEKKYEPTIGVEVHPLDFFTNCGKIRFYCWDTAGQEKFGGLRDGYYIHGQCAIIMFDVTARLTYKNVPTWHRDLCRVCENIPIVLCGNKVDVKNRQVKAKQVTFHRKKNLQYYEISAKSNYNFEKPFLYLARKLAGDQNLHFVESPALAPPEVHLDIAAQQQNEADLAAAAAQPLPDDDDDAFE
# UniProt F4HW04: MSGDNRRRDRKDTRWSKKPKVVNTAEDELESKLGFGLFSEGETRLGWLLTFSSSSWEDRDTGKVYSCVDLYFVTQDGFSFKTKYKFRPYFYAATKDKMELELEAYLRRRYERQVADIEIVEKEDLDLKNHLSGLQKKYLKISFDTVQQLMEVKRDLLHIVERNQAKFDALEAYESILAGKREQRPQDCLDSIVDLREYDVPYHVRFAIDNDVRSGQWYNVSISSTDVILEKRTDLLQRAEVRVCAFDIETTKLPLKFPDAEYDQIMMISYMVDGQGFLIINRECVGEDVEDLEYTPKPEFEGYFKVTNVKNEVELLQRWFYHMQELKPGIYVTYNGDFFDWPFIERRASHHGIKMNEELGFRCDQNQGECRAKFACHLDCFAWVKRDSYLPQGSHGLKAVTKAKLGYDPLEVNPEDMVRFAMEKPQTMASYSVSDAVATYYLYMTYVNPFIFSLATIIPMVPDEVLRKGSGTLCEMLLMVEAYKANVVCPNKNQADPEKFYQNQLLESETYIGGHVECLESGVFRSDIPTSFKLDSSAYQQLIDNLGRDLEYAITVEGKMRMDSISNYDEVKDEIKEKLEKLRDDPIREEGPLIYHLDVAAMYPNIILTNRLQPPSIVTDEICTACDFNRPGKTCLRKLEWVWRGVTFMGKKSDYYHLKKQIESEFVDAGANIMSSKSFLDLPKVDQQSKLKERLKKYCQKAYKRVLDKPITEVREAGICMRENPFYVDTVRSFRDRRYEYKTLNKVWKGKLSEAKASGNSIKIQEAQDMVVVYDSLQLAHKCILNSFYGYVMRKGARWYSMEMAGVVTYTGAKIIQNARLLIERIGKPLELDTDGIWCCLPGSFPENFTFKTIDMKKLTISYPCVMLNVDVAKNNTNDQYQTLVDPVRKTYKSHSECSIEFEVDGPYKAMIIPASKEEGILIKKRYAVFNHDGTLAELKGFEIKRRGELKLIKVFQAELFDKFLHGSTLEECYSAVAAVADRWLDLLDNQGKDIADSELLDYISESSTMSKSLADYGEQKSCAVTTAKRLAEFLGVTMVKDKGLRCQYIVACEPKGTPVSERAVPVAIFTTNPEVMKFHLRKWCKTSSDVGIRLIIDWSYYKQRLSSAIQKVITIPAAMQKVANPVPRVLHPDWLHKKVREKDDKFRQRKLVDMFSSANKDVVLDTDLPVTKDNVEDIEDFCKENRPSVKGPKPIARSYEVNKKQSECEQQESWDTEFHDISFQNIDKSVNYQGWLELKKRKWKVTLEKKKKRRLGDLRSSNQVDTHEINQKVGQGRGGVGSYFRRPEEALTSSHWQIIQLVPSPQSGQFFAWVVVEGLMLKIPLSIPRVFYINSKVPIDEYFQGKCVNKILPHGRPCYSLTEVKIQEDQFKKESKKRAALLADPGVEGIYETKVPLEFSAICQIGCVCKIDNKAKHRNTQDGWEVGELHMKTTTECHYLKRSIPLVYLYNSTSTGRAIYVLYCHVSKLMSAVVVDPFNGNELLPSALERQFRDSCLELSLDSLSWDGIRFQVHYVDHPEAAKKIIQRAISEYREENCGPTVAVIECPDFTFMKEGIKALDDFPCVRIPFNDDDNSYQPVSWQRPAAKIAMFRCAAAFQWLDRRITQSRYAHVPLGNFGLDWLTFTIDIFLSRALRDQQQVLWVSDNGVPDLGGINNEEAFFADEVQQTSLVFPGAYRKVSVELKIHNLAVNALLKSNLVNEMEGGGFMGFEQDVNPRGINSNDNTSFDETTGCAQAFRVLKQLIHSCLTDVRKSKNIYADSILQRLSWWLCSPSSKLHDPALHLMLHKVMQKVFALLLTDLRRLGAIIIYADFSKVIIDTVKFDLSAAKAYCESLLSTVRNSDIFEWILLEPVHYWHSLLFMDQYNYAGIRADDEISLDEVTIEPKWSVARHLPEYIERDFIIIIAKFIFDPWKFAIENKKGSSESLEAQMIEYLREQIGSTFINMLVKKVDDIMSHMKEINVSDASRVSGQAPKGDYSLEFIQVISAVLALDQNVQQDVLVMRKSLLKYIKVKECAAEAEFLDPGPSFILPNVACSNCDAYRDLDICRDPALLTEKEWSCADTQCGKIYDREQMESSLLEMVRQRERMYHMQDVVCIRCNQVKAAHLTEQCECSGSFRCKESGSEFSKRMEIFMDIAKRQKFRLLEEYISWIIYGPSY
# Columns and labels:
# Experiment in all cases: affinity purification with mass spectrometry; anti-Myc (MMS19-Myc) or anti-Flag (CIA1-Flag, CIA2-Flag) antibody-conjugated beads on extracts of flowers or seedlings of transgenic plants; CIA1-Flag and CIA2-Flag in the wild-type background, also done in the mms19 mutant background; lysis buffer 50 mM Tris-HCl pH 7.6, 150 mM NaCl, 5 mM MgCl2, 10% glycerol, 0.1% NP-40, 0.5 mM DTT; 4 °C; wild-type plants as control
# [1] = target: T1, CIA1-Flag (Arabidopsis thaliana) (UniProt O80990)
# T1 sequence: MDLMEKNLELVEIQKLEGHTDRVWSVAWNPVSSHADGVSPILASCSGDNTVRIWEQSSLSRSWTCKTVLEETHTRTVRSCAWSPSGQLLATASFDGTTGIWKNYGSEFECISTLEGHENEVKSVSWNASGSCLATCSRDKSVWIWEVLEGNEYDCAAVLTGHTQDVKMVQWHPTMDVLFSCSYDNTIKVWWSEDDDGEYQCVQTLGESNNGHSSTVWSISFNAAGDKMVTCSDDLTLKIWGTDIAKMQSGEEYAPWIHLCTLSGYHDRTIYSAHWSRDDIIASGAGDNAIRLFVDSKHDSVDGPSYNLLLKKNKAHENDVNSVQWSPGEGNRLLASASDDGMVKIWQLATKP
# [2] = target: T2, CIA2-Flag (Arabidopsis thaliana) (UniProt Q9C9G6)
# T2 sequence: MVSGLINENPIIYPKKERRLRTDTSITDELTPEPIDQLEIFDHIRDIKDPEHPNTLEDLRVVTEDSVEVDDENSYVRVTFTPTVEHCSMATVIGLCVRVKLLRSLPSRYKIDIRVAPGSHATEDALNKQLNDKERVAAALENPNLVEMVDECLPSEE
# [3] = target: T3, MMS19-Myc (Arabidopsis thaliana) (UniProt Q0WVF8)
# T3 sequence: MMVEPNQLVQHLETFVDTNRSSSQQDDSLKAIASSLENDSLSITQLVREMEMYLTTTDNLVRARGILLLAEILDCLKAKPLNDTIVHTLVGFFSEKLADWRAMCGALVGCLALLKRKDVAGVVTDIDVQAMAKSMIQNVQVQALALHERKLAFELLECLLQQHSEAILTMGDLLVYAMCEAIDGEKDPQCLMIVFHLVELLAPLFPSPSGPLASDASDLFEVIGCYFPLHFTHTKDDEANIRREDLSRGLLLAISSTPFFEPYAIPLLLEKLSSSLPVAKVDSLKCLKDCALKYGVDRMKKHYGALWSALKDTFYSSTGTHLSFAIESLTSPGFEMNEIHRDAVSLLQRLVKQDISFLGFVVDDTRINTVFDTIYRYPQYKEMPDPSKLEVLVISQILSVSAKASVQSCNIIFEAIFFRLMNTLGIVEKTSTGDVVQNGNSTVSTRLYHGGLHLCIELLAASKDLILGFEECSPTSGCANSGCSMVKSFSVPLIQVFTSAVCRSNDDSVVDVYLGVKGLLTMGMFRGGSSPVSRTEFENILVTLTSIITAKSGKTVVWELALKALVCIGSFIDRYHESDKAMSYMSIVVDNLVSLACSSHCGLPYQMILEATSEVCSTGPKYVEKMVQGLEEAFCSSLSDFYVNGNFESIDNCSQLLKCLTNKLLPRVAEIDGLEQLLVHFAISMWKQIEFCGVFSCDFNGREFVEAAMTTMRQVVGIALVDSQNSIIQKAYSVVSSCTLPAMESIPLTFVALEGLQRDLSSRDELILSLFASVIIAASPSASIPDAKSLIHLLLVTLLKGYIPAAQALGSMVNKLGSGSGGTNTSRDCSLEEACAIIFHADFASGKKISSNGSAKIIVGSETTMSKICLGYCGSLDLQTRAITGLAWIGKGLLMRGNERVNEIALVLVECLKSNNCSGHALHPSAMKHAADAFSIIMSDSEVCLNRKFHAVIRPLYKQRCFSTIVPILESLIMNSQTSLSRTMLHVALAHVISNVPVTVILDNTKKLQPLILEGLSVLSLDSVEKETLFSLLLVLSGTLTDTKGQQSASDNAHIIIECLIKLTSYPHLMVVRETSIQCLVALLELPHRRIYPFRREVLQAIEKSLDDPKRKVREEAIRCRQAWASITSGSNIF
Substance,binding [1],binding [2],binding [3]
"ICU2, catalytic subunit of DNA polymerase α (from UniProt Q9FHA3)",no binding,no binding,binds
RAN2 (from UniProt P41917 1-221),binds,binds,binds
"ABO4, catalytic subunit of DNA polymerase ε (from UniProt F4HW04 1-2161)",no binding,no binding,binds

# These are yes or no findings as the source states them, for the method shown. Binding seen in cells or lysates may run through a third protein. A yes stands for co-enrichment or nearness to the bait. Other partners may have been found. For part of these data: No binding means not detected with the bait. Sequences can lack the tags named with a protein.
